Some peptides are written in HELM: one residue between dots, names in brackets for other building blocks, links after the first $.
Assay: peptide made by a vendor
Conditions: whole synthesis

Substance | purity (crude or final not stated)
PEPTIDE1{I.S.Q.T.P.G.I.N.L.D.L.G.S.G.V.K.V.K.I.I.P.K.E.E.H}$$$$V2.0 | 99% or more
PEPTIDE1{N.Q.Q.L.K.V.G.I.L.H.L.G.S.R.Q.K.K.I.R.I.Q.L.R.S.Q}$$$$V2.0 | 99% or more

— patent US11709165B2 (KAWASAKI GAKUEN EDUCATIONAL FOUNDATION, priority 2017, dated 2023)
